Measured values as given in paper PMC8500837, “The tertiary structure of the human Xkr8–Basigin complex that scrambles phospholipids at plasma membranes” (Nature Structural & Molecular Biology, 2021).
Substitutions are numbered along the chain they refer to. These are yes or no findings as the source states them, for the method shown. In cells and extracts the contact can be indirect. Binding can be weak; no strength is given. Tags and fused reporters may be left off the sequences shown.

Tests used:
[1] = target: T1, hXkr8-T302C tagged with mGFP (human) (UniProt Q9H6D3); assay: cross-linking; cysteine-substituted hXkr8-mGFP and hBSG-HA co-expressed in HEK293T; crude membrane fraction treated with copper phenanthroline (0.3 mM CuSO4, 0.9 mM 1,10-phenanthroline) at room temperature for 10 min; nonreducing SDS–PAGE, western blot for GFP and HA
T1 sequence: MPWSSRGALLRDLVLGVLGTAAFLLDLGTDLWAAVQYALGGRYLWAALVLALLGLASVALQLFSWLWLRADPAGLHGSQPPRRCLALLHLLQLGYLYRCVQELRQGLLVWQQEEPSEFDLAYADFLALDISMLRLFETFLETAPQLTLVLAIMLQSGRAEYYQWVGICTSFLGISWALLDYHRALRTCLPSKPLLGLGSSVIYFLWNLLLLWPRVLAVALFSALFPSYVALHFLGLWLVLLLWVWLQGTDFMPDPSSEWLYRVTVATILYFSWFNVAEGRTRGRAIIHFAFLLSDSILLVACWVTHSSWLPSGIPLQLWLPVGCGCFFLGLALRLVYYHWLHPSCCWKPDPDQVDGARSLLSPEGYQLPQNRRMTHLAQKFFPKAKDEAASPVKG

[2] = target: T2, hXkr8-T305C tagged with mGFP (human) (UniProt Q9H6D3); assay: cross-linking; cysteine-substituted hXkr8-mGFP and hBSG-HA co-expressed in HEK293T; crude membrane fraction not treated with oxidant; nonreducing SDS–PAGE, western blot for GFP and HA
T2 sequence: T1 sequence with C302T, T305C

binding [1] | binding [2] | Substance
binds | – | hBSG-P211C tagged with HA (human)
– | binds | hBSG-A207C tagged with HA (human)
